Source: US8735439B2, “Chlorin e6-folic acid conjugate, preparation method thereof, and a pharmaceutical composition for the treatment of cancer comprising the same” (Diatech Korea Co., Ltd., priority 2009, dated 2014)

System: sarcoma M-1
Assay: Necrotic area in sarcoma M-1 after PDT
Type: in vivo, rats
Settings: PDT 100 J/cm^2 at 4 hours, mean of 25 slides
Description: 2 hours later the animals were killed by chloroform, the tumor was excised and fixed for one hour in 10%-HOM formalin. After fixation, transverse sections of the tumor nodule in its highest diameter were made, and pictures were taken by a camera connected to a computer.
For quantitative assessment of necroses formed after PDT, computer analysis of color tints of histo-topographic tumor slides was performed using a special program.
The program included an algorithm of blue color identification (Evans blue), which stained viable areas of the tumor. Tumor areas killed from direct cytotoxic effect or due to structural-functional disorders of microcirculation were not stained in blue. The ratio of all non-stained dots to the total amount of dots in the fence of the tumor slide was considered to be the destruction efficiency.
For this purpose, a laser medical instrument “ ? 680-2000” (BIOSPEC, Moscow) was used to perform the exposure at a wavelength of 670 nm in a dose of 100 J/cm^2. The power density was 0.51 W/cm^2, the output power was 0.4 W, and the spot light diameter was 1 cm. Time of exposure was […]. Monitoring over radiating power was conducted by a universal power meter included in the laser device “ ? 4680-2000”.

Substance: [γ-(6-aminohexyl)folic acid]-chlorin e6 [chlorin e6 conjugate]
- Slide area of sarcoma M-1 (2.5 mg/kg): 2.508 cm^2
- Slide area of sarcoma M-1 (5.0 mg/kg): 2,255 cm^2
- Slide area of sarcoma M-1 (10.0 mg/kg): 1.886 cm^2
